Values from PubChem BioAssay AID1259308 (NCATS, 2017)
Here is an unselected part of about 59,000 deposited reagents. About 1,510 of all reagents (2.6%) count as active. 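Calls use total luciferase alone and ignore viability, so some active siRNAs may act by altering cell number.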 Entries without a mark were called inactive. The numbers tell different reagents against one gene apart. Further read-outs or replicates are left out here.

Test: 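Knock-downs that increase output of a recombinant reporter protein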 (primary screen)
Cell system: human HEK293 embryonic kidney cells stably expressing firefly luciferase (HEK-CMV-Luc2-Hygro)
Reagents: single siRNA against human genes, 0.8 pmol siRNA per well
Duration: 72 h
Measured: 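Luciferase light (ONE-Glo) measured on one replicate plate set and viability (CellTiter-Glo) on the other, scaled to a negative control siRNA, with robust z-scores and luciferase per cell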
Reading the numbers: total luciferase, z-score: higher = more reporter protein produced
Call rule: 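Active when the median/MAD z-score for overall luciferase is greater than 3; a gene was taken forward for validation with new siRNAs if at least two of its three siRNAs passed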
Meaning of the calls: active = raised luciferase; inactive = no rise

RBM38 (GeneID 55544) #1 showed total luciferase, z-score -1.35.
With knock-down of RBM38 (GeneID 55544) #2, the screen gave total luciferase, z-score -2.79.
Silencing of RBM38 (GeneID 55544) #3 resulted in: total luciferase, z-score -0.0105.
Knock-down of CSTPP1 (GeneID 79096) #1 gave: total luciferase, z-score -0.891.
For CSTPP1 (GeneID 79096) #2, the values are total luciferase, z-score -0.355.
Silencing of CSTPP1 (GeneID 79096) #3 resulted in: total luciferase, z-score 2.05.
RALGPS1 (GeneID 9649) #1 showed total luciferase, z-score -0.22.
After knock-down of RALGPS1 (GeneID 9649) #2 the results were total luciferase, z-score -0.0302.
Silencing of RALGPS1 (GeneID 9649) #3 came out at: total luciferase, z-score -0.756.

Look-ups from the entries so far:
Result for RBM38 (GeneID 55544) #3 in “total luciferase, z-score”: -0.0105
CSTPP1 (GeneID 79096) #3, total luciferase, z-score = 2.05
Under “total luciferase, z-score”, CSTPP1 (GeneID 79096) #2 reads -0.355

More entries follow:
With knock-down of BCL6 (GeneID 604) #1, the screen gave total luciferase, z-score -2.85.
Against BCL6 (GeneID 604) #2, the entry reads total luciferase, z-score -0.0161.
BCL6 (GeneID 604) #3 gave total luciferase, z-score -1.38.
Against LY6G6C (GeneID 80740) #1 the deposit lists total luciferase, z-score -1.36.
With knock-down of LY6G6C (GeneID 80740) #2 the results were total luciferase, z-score -0.213.
LY6G6C (GeneID 80740) #3 scored total luciferase, z-score 2.15.
Against SANBR (GeneID 84542) #1, the entry reads total luciferase, z-score -0.163.
Silencing of SANBR (GeneID 84542) #2 came out at: total luciferase, z-score 0.0076.
Depletion of SANBR (GeneID 84542) #3 came out at: total luciferase, z-score 2.29.
With knock-down of PUSL1 (GeneID 126789) #1, the screen gave total luciferase, z-score 0.279.
With knock-down of PUSL1 (GeneID 126789) #2, the record shows total luciferase, z-score 0.516.
Against PUSL1 (GeneID 126789) #3 the deposit lists total luciferase, z-score 0.319.
